No constants are given. Whether binding was seen depends on the method and setting. Some entries that bind do so weakly or less than the wild type. Where a sequence is shown, tags or fusion partners need not be part of it.
Molecular target: Ccq1 full length, two-hybrid fusion (S. pombe) (UniProt Q10432)
Test: two-hybrid; L40 strain with pBTM116 and pACT2 fusion plasmids; liquid β-galactosidase assay, normalised to the wild-type interaction set to 100

B1: Ccq1 full length, two-hybrid fusion (protein, UniProt Q10432 1-735)
chain: MSEINDFTNSIIINESDTKYEVYSEVNSSNRWIAKEDCPSPLEDVWLLKLAGHKRKLEEPLSCMRNEEPASKQREIEKFLRTDLDHSENDFLTQEVDEFPSTQQLFPIPLQNDTAFDSSEESITKSSKSSFSVLDIGLPMSALQRKMMHRLVQYFAFCIDHFCTGPSDSRIQEKIRLFIQSAHNIAKHPSLYDTEVRNPSAAESTNSHVSLDASNFSSYAENSSKFLFLQELFKNLSPSYSKTFFLFISNQFLANTLTQWLKSQNIDAELWAEEDAKTSQHPAIWICVSKKAPSASHFLQSCPDLSATIFYDIEAYMSVTSSLPSIQSLVLRLIHLGSIEHAIKCFQSSYNASFLVNIVGVVATLSSSSEENSEASNLSTLFEKSGNFEEILGSESHSSITEKTRDIAKNVATWLKNGENFSSWPLPPLMDLASLSVAEPRDSQPSVSQVNDTFVKSSDSTFPSSQSMQSPSKLHSLTSNATDLLSSSSLKKNFFSQQEADEVELSNNYDLQGAAVQYLQRRLRMVEDELHEAINSKNVQQSRSEELEQQISKLTDNLQEYRNTVRELKLDLEKSKKKNEDLSKLEVEKVEEIANLKKELTHLAKQQEFGFKYVQEFSNEDLQGKLIEANEKNYKLTQLLKTQKEDADFITNQYQNASTFAAEQSKEVAKLQAECKRLQAINSKVMEEVKVYNDSRVEALLAKVSSLEETLKILEQKSLPKFTPHNQSPRIIDSN
binding: binds
